Consider 42 sequences from article PMC7819943, “Rice protein-binding microarrays: a tool to detect cis-acting elements near promoter regions in rice”.

Some of the results follow.

This test has as its target T1, OsSMF1 (Oryza sativa, UniProt Q6ZLB0 1-436).
T1 sequence: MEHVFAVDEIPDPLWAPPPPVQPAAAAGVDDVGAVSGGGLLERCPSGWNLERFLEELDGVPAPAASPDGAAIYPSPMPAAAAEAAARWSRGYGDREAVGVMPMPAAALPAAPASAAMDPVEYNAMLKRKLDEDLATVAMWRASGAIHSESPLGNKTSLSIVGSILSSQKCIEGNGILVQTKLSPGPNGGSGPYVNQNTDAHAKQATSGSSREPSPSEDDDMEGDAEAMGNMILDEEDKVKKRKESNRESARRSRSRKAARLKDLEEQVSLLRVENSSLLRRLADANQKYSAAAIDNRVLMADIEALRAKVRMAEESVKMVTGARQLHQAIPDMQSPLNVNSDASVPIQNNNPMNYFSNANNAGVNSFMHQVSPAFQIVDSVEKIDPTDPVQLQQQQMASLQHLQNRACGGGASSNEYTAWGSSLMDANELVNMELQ
The experiment in a line: protein-binding microarray (RPBM); PBS, 2% BSA, 51.3 ng/ul salmon testes DNA, 50 uM zinc acetate, 200 nM TF, 25 C, 1 h; high values mean tight binding. The conditions noted are these: protein: recombinant; tags: N-terminal polyhistidine and DsRed monomer fusion (pET32a); chain copies: 2; label: CyDye5-dUTP incorporated in the synthesized complementary strand; 3' TTTTT single-stranded linker to array surface; dsDNA, one strand shown. In short, it runs like this: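 The binding signal for each feature is its fluorescence intensity in arbitrary units. An Axon 4000B scanner was used to read a custom Agilent array that had been made double-stranded with Cy5-dUTP primer extension, blocked with 2% BSA, incubated at 25 °C for 1 h with 200 nM protein in PBS, 2% BSA, salmon testes DNA and 50 µM zinc acetate, and washed. The protein was an N-terminal polyhistidine–DsRed transcription factor fusion from E. coli BL21-CodonPlus, purified on Ni–NTA.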
In the case of “ATGAGGAGGAGAAGGTGCGGCGTCGGGCGGGGAGGAGCAGCGGAGTCACCTAGTGCAG”, the binding signal is 3410 fluorescence intensity (a.u.).
Under “TGAAGGGTTGCTTTCTGCTATGTCAGTTATTTCGCTTTGTCGGAGTCACCTAGTGCAG” stands 4530 fluorescence intensity (a.u.).
For the sequence “CCACCGCCACCGCCGCGTCGTCCTCTTCCACCAACACCTCCGGAGTCACCTAGTGCAG”, the binding signal was 4330 fluorescence intensity (a.u.).
Under “CAAGCACCCGGCCGTCGAGCTTATCTCGCTGAGTCAAAAGCGGAGTCACCTAGTGCAG” stands 3220 fluorescence intensity (a.u.).
Under “AAGATCCGGCTGATTTTATTAGAAAAGGACAGGCGTGGGGCGGAGTCACCTAGTGCAG” stands 21600 fluorescence intensity (a.u.); under “CTCGTTCCTCCCCTCCCCTGTCAGTCTGCCACGACGGCACCGGAGTCACCTAGTGCAG”, 6800 fluorescence intensity (a.u.).
For the sequence “ATTCCAAGCCTTTTCAGATTAGGTGGCACCCTAATCCTTCCGGAGTCACCTAGTGCAG”, the binding signal was 3940 fluorescence intensity (a.u.).
Under “TGCACGCACAGCCATCCACAAGCCATGAGCCGGCGCGAGACGGAGTCACCTAGTGCAG” stands 3640 fluorescence intensity (a.u.); under “CGGCCCACCCACCAACCACCACCACCACCACCACACCCGCCGGAGTCACCTAGTGCAG”, 3740 fluorescence intensity (a.u.); under “GCCTGTGGCCCACGCCGTCAGTGGGAGTGGCGGTGTCGGGCGGAGTCACCTAGTGCAG”, 3960 fluorescence intensity (a.u.).
Under “CAGCCTCCCATGGCCTCGTGGACCCGTAGTCCAACTGTCCCGGAGTCACCTAGTGCAG” stands 3760 fluorescence intensity (a.u.); under “GGGCTTCCTTCCAAGCTTCGTCGATCGTCCAGATCAGAGGCGGAGTCACCTAGTGCAG”, 3370 fluorescence intensity (a.u.); under “GAGGGAGTACTTTACATGCGTGGCTGCGTAGCGTGTGCATCGGAGTCACCTAGTGCAG”, 3780 fluorescence intensity (a.u.).
Then “GCTTCCCTTGATACACGTGGCAGCAGGGAAGCACAATTGCCGGAGTCACCTAGTGCAG”, with 9970 fluorescence intensity (a.u.).
“GACTCCCGCGTGCTCGCCGCGCCGCCCACCGTCACCGCCTCGGAGTCACCTAGTGCAG”: the binding signal is 3230 fluorescence intensity (a.u.).
Under “CTAACACATGCAATAATTCGTGCCGATATCGAGATCGATCCGGAGTCACCTAGTGCAG” stands 3580 fluorescence intensity (a.u.); under “AACGATGGCGTCCTCGCGTATAAATTCATCGCCCGTGCACCGGAGTCACCTAGTGCAG”, 3620 fluorescence intensity (a.u.); under “AGATGTGATACATTAGCATTCTAGCACGGCGGTGGCATTGCGGAGTCACCTAGTGCAG”, 3250 fluorescence intensity (a.u.).
Under “CTCACTTCCATACGCGGCCCGCCGCACGGGTGCGCATCTCCGGAGTCACCTAGTGCAG” stands 3310 fluorescence intensity (a.u.); under “AACCGGGACTAAAGATCGTACCTTTAGTTACGATCTTTAGCGGAGTCACCTAGTGCAG”, 28500 fluorescence intensity (a.u.); under “CTAACCGCAACTGCCACCTCACGCAAACGGGCTCGCTGGTCGGAGTCACCTAGTGCAG”, 5110 fluorescence intensity (a.u.).
Under “GGTTTGGATGGAGCTGGAGGTGGGTGAGTTCTTCCACAACCGGAGTCACCTAGTGCAG” stands 3260 fluorescence intensity (a.u.); under “TAAAATTTAATTCATATTATACTAATTATTGGTCAAATATCGGAGTCACCTAGTGCAG”, 3230 fluorescence intensity (a.u.); under “AGCAACAGCGGGTCACCGCCTCCTCGTGTTCTCTCTGCTGCGGAGTCACCTAGTGCAG”, 3550 fluorescence intensity (a.u.).
For “TTAAATTGGTTCAATTGATGTCGACGTTACTATATTTTACCGGAGTCACCTAGTGCAG”, the binding signal is 3220 fluorescence intensity (a.u.).
Then “TTGTGAATGTCCTAATGACTAGGCTGCCGTGTCAGTCAATCGGAGTCACCTAGTGCAG”, with 7830 fluorescence intensity (a.u.).
Under “GAGGCTGCTAGGCGACGTGCGGCCGTCGTGGCAGCGGTGCCGGAGTCACCTAGTGCAG” stands 6300 fluorescence intensity (a.u.); under “CTCCCGTAGAGATGCAGATACCGTCACAACCTACAACCAACGGAGTCACCTAGTGCAG”, 4050 fluorescence intensity (a.u.).
With “TAAGTCAACAAGCTATGACAGTAGAAATCACTGTCAATACCGGAGTCACCTAGTGCAG”, the binding signal is 3530 fluorescence intensity (a.u.).
On to “CGTCCATGAGCTGTTAGCTGACATCCTTTTGCTGTATTGACGGAGTCACCTAGTGCAG”, for which the binding signal was 4450 fluorescence intensity (a.u.).
Under “TTAGGATAGTTTAATACTGAGATGATACGTTTATGCCGGTCGGAGTCACCTAGTGCAG” stands 3200 fluorescence intensity (a.u.).
Under “AAAAGATCCCCTATACTGTAAAGTCAGCAAATCCATGTGGCGGAGTCACCTAGTGCAG” stands 4560 fluorescence intensity (a.u.); under “GATCAATCACAGAGCAAAGCAGCCATTCCTCACGTCACGTCGGAGTCACCTAGTGCAG”, 5470 fluorescence intensity (a.u.); under “CTCTGGATATATTAATGGATTCTGGATAATGTCCTAGCGGCGGAGTCACCTAGTGCAG”, 4070 fluorescence intensity (a.u.).
Under “AACAGCTCAATTAATTAATCGCCCACACCGAAGCGCGCACCGGAGTCACCTAGTGCAG” stands 39800 fluorescence intensity (a.u.).
As for “AACAAAGCCAACGTCCCACCACCACCACACGCGCGCGCTCCGGAGTCACCTAGTGCAG”, the binding signal was 3240 fluorescence intensity (a.u.).
Then “ATCTTGACAAATATTATCTCAATAACAGGTCACTGAGATGCGGAGTCACCTAGTGCAG”, with 3250 fluorescence intensity (a.u.); and “TTAGAGGACACATTCGTGTGGATGTGACTGTGGTGTTGCGCGGAGTCACCTAGTGCAG”, with 3300 fluorescence intensity (a.u.).
Under “AACAAATTCAAACAATTATTCTGACTTCGCCACCTATCGACGGAGTCACCTAGTGCAG” stands 3780 fluorescence intensity (a.u.); under “GAGGCCGACGGCGACGGCCTCGTGGCTCTTGGCAACGCCCCGGAGTCACCTAGTGCAG”, 3500 fluorescence intensity (a.u.).
Under “GAACACACGATTTGTCAATATCCACGTTAGCTAGCAAAAGCGGAGTCACCTAGTGCAG” stands 4600 fluorescence intensity (a.u.); under “ATCATCCCTGTCCCTGTCCGACGTGGCCGTCCCACGTGGCCGGAGTCACCTAGTGCAG”, 33700 fluorescence intensity (a.u.).
